Measurements as given in PubChem BioAssay AID296 (DTP/NCI, 2004).
The list is a part of this screen's results and no random one: it gathers tests that were run many times, whatever their T/C, doses with no T/C, and many T/C values between a quarter and a half above the control. Other doses and runs of a compound stand elsewhere. T/C gives the treated animals as a percentage of the vehicle group. Schedule codes are those of the source, taken here to give the interval after Q, in days (D) or hours (H), and the number of doses after X. Some T/C values carry the count of animals alive at the toxicity check (mostly the fifth day); where none is given, no animal had died by that day. Some entries hold several experiments; their values stand side by side, smallest first. Some entries give survivors of the animals treated and no T/C: the source holds a T/C of zero for them, seemingly a mark for toxic or unscored doses. Counts of survivors are from the toxicity check (mostly the fifth day) where no day follows; animals may have died later.

System: MX-1 breast xenograft, nude mice, tumor weight T/C
Assay: NCI In Vivo Anticancer Drug Screen. Data for tumor model Human Mammary Carcinoma MX-1 Xenograft (intrarenal inoculation) in NU/NU Swiss (nude) mice
Conditions: T/C endpoint: mean tumor weight change, higher T/C = larger tumour; for T/C: evaluated on day 11
How it was run: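 Compound dosed to mice with transplantable tumor; vehicle group as control. Endpoint survival or tumour size, reported as T/C.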

[1] = dose: 25.0 mg/kg/injection, schedule: Q04DX003 (sc), vehicle: water
[2] = dose: 1200.0 mg/kg/injection, schedule: Q04DX003 (sc), vehicle: Klucel (hydroxypropylcellulose) (HPC)
[3] = dose: 4.0 mg/kg/injection, schedule: Q01DX010 (sc), vehicle: saline
[4] = dose: 8.0 mg/kg/injection, schedule: Q01DX010 (sc), vehicle: saline
[5] = dose: 300.0 mg/kg/injection, schedule: Q04DX003 (sc), vehicle: saline
[6] = dose: 32.0 mg/kg/injection, schedule: Q01DX010 (sc), vehicle: saline
[7] = dose: 800.0 mg/kg/injection, schedule: Q04DX003 (sc), vehicle: saline

O=NN(CCCl)C(=O)NCCO
T/C (dose: 12.5 mg/kg/injection, schedule: Q04DX003 (sc), vehicle: water): 129 % of control | T/C [1]: 143 % of control | survivor count [1]: 3 of 5 on day 11

C[N+](C)(C)c1ncnc2nc[nH]c12
survivor count (dose: 200.0 mg/kg/injection, schedule: Q01DX010 (sc), vehicle: saline): 1 of 3 on day 11 | survivor count (dose: 400.0 mg/kg/injection, schedule: Q01DX010 (sc), vehicle: saline): 0 of 3 on day 11

CN(C)C1C(=O)C(C(=O)NP(=O)(NCCCO)N(CCCl)CCCl)=C(O)C2(O)C(=O)C3=C(O)c4c(O)cccc4C(C)(O)C3CC12 (configuration not stated)
survivor count (dose: 1200.0 mg/kg/injection, schedule: Q04DX003 (sc), vehicle: saline with Tween-80): 3 of 6 on day 11

Cc1c2cc[n+](C)cc2c(C)c2c1[nH]c1ccc(O)cc12
T/C (dose: 3.0 mg/kg/injection, schedule: Q04DX003 (sc), vehicle: water): 135 % of control [4 of 6 alive on day 11] | survivor count (dose: 12.0 mg/kg/injection, schedule: Q04DX003 (sc), vehicle: water): 1 of 6 on day 11

CC[C@@]1(O)C(=O)OCc2c1cc1n(c2=O)Cc2cc3cc(O)ccc3nc2-1
survivor count (dose: 256.0 mg/kg/injection, schedule: Q04DX003 (sc), vehicle: suspension in saline): 3 of 6 on day 11

C=C1C(=O)OCC1C(=O)O (configuration not stated)
survivor count (dose: 400.0 mg/kg/injection, schedule: Q04DX003 (sc), vehicle: suspension in saline): 0 of 6 on day 11

CCN(CC)CC[n+]1ccc2c(C)c3[nH]c4ccc(O)cc4c3c(C)c2c1
survivor count (dose: 50.0 mg/kg/injection, schedule: Q04DX003 (sc), vehicle: suspension in saline): 2 of 6 on day 11 | survivor count (dose: 100.0 mg/kg/injection, schedule: Q04DX003 (sc), vehicle: suspension in saline): 0 of 6 on day 11

O=C1NC2(CCCCC2)C(=O)N1CCN(CCCl)CCCl
survivor count (dose: 12.0 mg/kg/injection, schedule: Q01DX010 (sc), vehicle: saline with Tween-80): 1 of 3 on day 11 | survivor count (dose: 24.0 mg/kg/injection, schedule: Q01DX010 (sc), vehicle: saline with Tween-80): 0 of 3 on day 11 | survivor count (dose: 48.0 mg/kg/injection, schedule: Q01DX010 (sc), vehicle: saline with Tween-80): 0 of 3 on day 11 | survivor count (dose: 96.0 mg/kg/injection, schedule: Q01DX010 (sc), vehicle: saline with Tween-80): 0 of 2 on day 11 | survivor count (dose: 96.0 mg/kg/injection, schedule: Q01DX010 (sc), vehicle: saline): 0 of 2 on day 11

c1ccc2sc(SSN3CC4CCC(CC4)C3)nc2c1
T/C (dose: 50.0 mg/kg/injection, schedule: Q01DX010 (sc), vehicle: saline with Tween-80): 136 % of control | T/C (dose: 100.0 mg/kg/injection, schedule: Q01DX010 (sc), vehicle: saline with Tween-80): 136 % of control

CC(C)(C)c1ccc(CN2CCN(C(c3ccccc3)c3ccc(Cl)cc3)CC2)cc1 (configuration not stated)
T/C (dose: 150.0 mg/kg/injection, schedule: Q04DX003 (sc), vehicle: Klucel (hydroxypropylcellulose) (HPC)): 131 % of control

Cc1ccc(C2NC(=S)N3C(c4ccc(C)cc4)NC(=S)N23)cc1 (configuration not stated)
T/C [2]: 135 % of control [5 of 6 alive on day 11]

CCCC(=O)O.CCCC(=O)O.CCCC(=O)O.CCCC(=O)O.[Rh].[Rh]
survivor count (dose: 16.0 mg/kg/injection, schedule: Q04DX003 (sc), vehicle: suspension in saline): 3 of 6 on day 11

CC[C@](C)(O)C(=O)O[C@H]1C(=O)O[C@@H]2C[C@H]3C(C)=CC(=O)[C@@H](O)[C@]3(C)[C@H]3[C@@]4(O)OC[C@]32[C@@H]1[C@@H](C)[C@H]4O
survivor count (dose: 1.0 mg/kg/injection, schedule: Q01DX010 (sc), vehicle: Klucel (hydroxypropylcellulose) (HPC)): 3 of 6 on day 11 | survivor count (dose: 2.0 mg/kg/injection, schedule: Q01DX010 (sc), vehicle: Klucel (hydroxypropylcellulose) (HPC)): 0 of 3 on day 11, 2 of 6 on day 11, 3 of 6 on day 11

C=C(C)[C@H]1CN[C@H](C(=O)O)[C@H]1CC(=O)O
survivor count (dose: 80.0 mg/kg/injection, schedule: Q04DX003 (sc), vehicle: suspension in saline): 1 of 6 on day 11 | survivor count (dose: 160.0 mg/kg/injection, schedule: Q04DX003 (sc), vehicle: suspension in saline): 0 of 6 on day 11

S=P(N1CC1)(N1CC1)N1CC1
survivor count [3]: 0 of 3 on day 11 | survivor count [4]: 0 of 3 on day 11 and 0 of 6 on day 11

C[C@@H]1C[C@@H]([C@H](O)CC2CC(=O)NC(=O)C2)C(=O)[C@@H](C)C1
survivor count [5]: 1 of 6 on day 11

C1OC1CO[C@@H]1CO[C@H]2[C@@H]1OC[C@H]2OCC1CO1 (some centres not stated)
survivor count (dose: 400.0 mg/kg/injection, schedule: Q01DX010 (sc), vehicle: saline with Tween-80): 0 of 3 on day 11

N/C(=N\OC(=O)Nc1ccc(CSc2ccc(Cl)cc2)o1)c1ccccn1
survivor count (dose: 75.0 mg/kg/injection, schedule: Q04DX003 (sc), vehicle: saline): 0 of 6 on day 11 | survivor count (dose: 600.0 mg/kg/injection, schedule: Q04DX003 (sc), vehicle: Klucel (hydroxypropylcellulose) (HPC)): 0 of 6 on day 11 | survivor count [2]: 0 of 5 on day 11

O=C(NC(Cc1ccc(I)cc1)C(=O)O)c1ccc(Br)cc1 (configuration not stated)
survivor count (dose: 150.0 mg/kg/injection, schedule: Q04DX003 (ip), vehicle: sodium bicarbonate): 1 of 6 on day 11 | survivor count (dose: 300.0 mg/kg/injection, schedule: Q04DX003 (ip), vehicle: sodium bicarbonate): 0 of 6 on day 11 | survivor count (dose: 600.0 mg/kg/injection, schedule: Q04DX003 (ip), vehicle: sodium bicarbonate): 0 of 6 on day 11

Cc1c(N)nc([C@H](CC(N)=O)NC[C@H](N)C(N)=O)nc1C(=O)N[C@H](C(=O)N[C@H](C)[C@@H](O)[C@H](C)C(=O)N[C@H](C(=O)NCCc1nc(-c2nc(C(=O)NCCC[S+](C)C)cs2)cs1)[C@@H](C)O)C(OC1OC(CO)C(O)C(O)C1OC1OC(CO)C(O)C(OC(N)=O)C1O)c1cnc[nH]1 (some centres not stated)
T/C [3]: 56, 65 [2 of 2 alive on day 11], 95, 138 % of control | T/C [4]: 21, 29, 43, 48, 78 [2 of 2 alive on day 11], 121 % of control [2 of 2 alive on day 11] | T/C (dose: 12.5 mg/kg/injection, schedule: Q04DX003 (sc), vehicle: saline): 132 % of control | T/C (dose: 16.0 mg/kg/injection, schedule: Q01DX010 (sc), vehicle: saline): 38, 44, 49, 49 [2 of 2 alive on day 11], 56 % of control | T/C [6]: 14, 18 [2 of 3 alive on day 11], 36, 43, 48 % of control | survivor count [6]: 1 of 2 on day 11 | survivor count (dose: 64.0 mg/kg/injection, schedule: Q01DX010 (sc), vehicle: saline): 0 of 3 on day 11, 0 of 6 on day 11, 2 of 6 on day 11 | survivor count (dose: 64.0 mg/kg/injection, schedule: Q04DX003 (sc), vehicle: saline): 1 of 3 on day 11 | survivor count (dose: 106.66 mg/kg/injection, schedule: Q04DX003 (ip), vehicle: saline): 1 of 3 on day 11 | survivor count [5]: 0 of 6 on day 11

NCCCNCCSP(=O)(O)O
survivor count [7]: 0 of 6 on day 11

NC(=O)Oc1cccc(OC(N)=O)c1
T/C (dose: 150.0 mg/kg/injection, schedule: Q04DX003 (sc), vehicle: water): 138 % of control

Cc1ccc2nc(-c3ccc4nc(-c5ccc(N=Nc6ccc(-c7nc8ccc(-c9nc%10ccc(C)c(S(=O)(=O)O)c%10s9)cc8s7)cc6)cc5)sc4c3)sc2c1S(=O)(=O)O
T/C (dose: 800.0 mg/kg/injection, schedule: Q04DX003 (sc), vehicle: suspension in saline): 137 % of control [4 of 6 alive on day 11] | survivor count (dose: 1600.0 mg/kg/injection, schedule: Q04DX003 (sc), vehicle: suspension in saline): 2 of 6 on day 11

COc1ccc(C[C@H](N)C(=O)NC2C(CO)OC(n3cnc4c(N(C)C)ncnc43)C2O)cc1 (some centres not stated)
survivor count (dose: 400.0 mg/kg/injection, schedule: Q04DX003 (sc), vehicle: saline): 1 of 6 on day 11 | survivor count [7]: 0 of 6 on day 11
